# Some of the results follow. For some assays here: The source does not settle which construct or isoform was used.
# Tests used:
# Assay in all cases: protein microarray (ProtoArray v5.0), streptavidin-Alexa Fluor 647
# Conditions in all cases: 3'-biotin; 20 mM Tris (pH 7.5), 5 mM MgCl2, 100 mM KCl, 0.1% Tween-20, A/T-rich and random oligonucleotide blockers; temperature not stated; high values mean tight binding
# TPP1 (human) = test system: TPP1 (human)
# TPT1 (human) = test system: TPT1 (human)
# TRA16 (human) = test system: TRA16 (human)
# TRAF2 (human) = test system: TRAF2 (human)
# TRAPPC3 (human) = test system: TRAPPC3 (human)
# TRAPPC4 (human) = test system: TRAPPC4 (human)
# TRBV5-4 (human) = test system: TRBV5-4 (human)
# TRDN (human) = test system: TRDN (human)
# TREX1 = biological target: T1, TREX1 (UniProt Q9NSU2)
# T1 sequence: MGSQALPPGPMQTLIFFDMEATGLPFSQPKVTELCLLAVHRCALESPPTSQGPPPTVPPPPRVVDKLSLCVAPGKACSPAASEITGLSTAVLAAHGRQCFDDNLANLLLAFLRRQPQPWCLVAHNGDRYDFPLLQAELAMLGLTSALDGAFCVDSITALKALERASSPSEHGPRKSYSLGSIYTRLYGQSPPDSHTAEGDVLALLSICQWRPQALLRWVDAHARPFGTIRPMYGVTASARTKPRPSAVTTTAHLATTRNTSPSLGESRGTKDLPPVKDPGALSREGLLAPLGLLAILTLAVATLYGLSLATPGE
# TRH (human) = test system: TRH (human)
# TRIM11 (human) = test system: TRIM11 (human)
# TRIM23 (human) = test system: TRIM23 (human)
# TRIM31 = biological target: T2, TRIM31 (UniProt Q9BZY9)
# T2 sequence: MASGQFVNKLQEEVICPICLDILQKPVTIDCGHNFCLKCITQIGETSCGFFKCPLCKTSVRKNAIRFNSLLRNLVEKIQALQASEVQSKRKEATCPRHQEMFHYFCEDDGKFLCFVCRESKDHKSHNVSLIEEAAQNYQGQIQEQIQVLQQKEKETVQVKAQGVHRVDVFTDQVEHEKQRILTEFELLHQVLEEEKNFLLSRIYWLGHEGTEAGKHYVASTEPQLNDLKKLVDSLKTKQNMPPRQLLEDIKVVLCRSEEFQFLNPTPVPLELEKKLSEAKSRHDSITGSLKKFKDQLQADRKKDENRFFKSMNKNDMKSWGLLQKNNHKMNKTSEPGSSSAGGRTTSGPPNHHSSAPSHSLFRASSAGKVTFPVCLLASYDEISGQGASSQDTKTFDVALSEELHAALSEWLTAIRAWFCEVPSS
# TRIM32 (human) = test system: TRIM32 (human)
# TRIM44 (human) = test system: TRIM44 (human)
# TRIM62 (human) = test system: TRIM62 (human)
# TRIM63 (human) = test system: TRIM63 (human)
# TRIM69 = biological target: T3, TRIM69 (UniProt Q86WT6)
# T3 sequence: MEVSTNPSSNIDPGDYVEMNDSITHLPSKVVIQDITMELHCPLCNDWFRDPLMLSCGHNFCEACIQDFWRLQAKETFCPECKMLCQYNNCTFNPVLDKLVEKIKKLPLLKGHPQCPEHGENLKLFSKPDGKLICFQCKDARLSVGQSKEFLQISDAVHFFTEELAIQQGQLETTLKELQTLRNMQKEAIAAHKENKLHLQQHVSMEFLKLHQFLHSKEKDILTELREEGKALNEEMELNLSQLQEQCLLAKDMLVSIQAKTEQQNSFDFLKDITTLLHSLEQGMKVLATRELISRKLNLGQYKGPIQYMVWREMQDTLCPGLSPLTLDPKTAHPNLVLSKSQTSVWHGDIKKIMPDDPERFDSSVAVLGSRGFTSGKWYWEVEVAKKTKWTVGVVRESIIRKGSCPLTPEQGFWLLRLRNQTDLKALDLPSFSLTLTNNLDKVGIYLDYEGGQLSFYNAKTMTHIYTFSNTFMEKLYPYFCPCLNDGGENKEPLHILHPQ
# TRIML1 = biological target: T4, TRIML1 (UniProt Q8N9V2)
# T4 sequence: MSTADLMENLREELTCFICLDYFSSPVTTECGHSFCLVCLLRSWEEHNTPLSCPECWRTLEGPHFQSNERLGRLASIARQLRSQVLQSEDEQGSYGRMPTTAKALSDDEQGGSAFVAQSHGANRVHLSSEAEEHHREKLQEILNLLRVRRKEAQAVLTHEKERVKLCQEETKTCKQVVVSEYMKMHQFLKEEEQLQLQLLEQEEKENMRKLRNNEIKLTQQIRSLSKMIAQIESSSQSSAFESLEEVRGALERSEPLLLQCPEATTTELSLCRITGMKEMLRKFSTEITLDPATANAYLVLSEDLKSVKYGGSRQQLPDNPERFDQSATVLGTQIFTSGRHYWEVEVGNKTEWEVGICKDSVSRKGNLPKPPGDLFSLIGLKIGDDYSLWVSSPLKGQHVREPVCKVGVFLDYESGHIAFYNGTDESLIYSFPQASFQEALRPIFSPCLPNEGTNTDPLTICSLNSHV
# TRMT1 (human) = test system: TRMT1 (human)
sequence,measurement,setting,value
GGGAGGCTGAGGCAGG [G4-1 biotinylated (PQS2)],binding signal,TPP1 (human),-0.324 z-score
same,binding signal,TPT1 (human),-0.351 z-score
same,binding signal,TRA16 (human),-0.334 z-score
same,binding signal,TRAF2 (human),-0.304 z-score
same,binding signal,TRAPPC3 (human),-0.336 z-score
same,binding signal,TRAPPC4 (human),-0.311 z-score
same,binding signal,TRBV5-4 (human),-0.33 z-score
same,binding signal,TRDN (human),-0.322 z-score
same,binding signal,TREX1,-0.261 z-score
same,binding signal,TRH (human),-0.333 z-score
same,binding signal,TRIM11 (human),-0.358 z-score
same,binding signal,TRIM23 (human),-0.297 z-score
same,binding signal,TRIM31,-0.321 z-score
same,binding signal,TRIM32 (human),-0.341 z-score
same,binding signal,TRIM44 (human),-0.367 z-score
same,binding signal,TRIM62 (human),-0.287 z-score
same,binding signal,TRIM63 (human),-0.357 z-score
same,binding signal,TRIM69,-0.331 z-score
same,binding signal,TRIML1,-0.285 z-score
same,binding signal,TRMT1 (human),-0.267 z-score

# Pulled one by one from above:
sequence,measurement,setting,value
GGGAGGCTGAGGCAGG [G4-1 biotinylated (PQS2)],binding signal,TRIM62 (human),-0.287 z-score
same,binding signal,TRH (human),-0.333 z-score

# — article PMC5996148
